Assay results as given in the supplement of paper PMC9135407.
Values joined by “and” are separate entries in the source; they are usually repeats but may differ in a detail not shown here. Equal values may be shown once. Where a name gives a salt, the structure may show the parent alone. ± gives the standard deviation of the averaged measurements. The list shows a part of the results. Baselines shift from plate to plate; read single values as rough.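 Culture-activated primary human stellate myofibroblasts, where regained lipid droplets signal inactivation. Value: share of Hoechst-counted cells above a per-plate Bodipy cutoff, in duplicate wells, with DMSO negative and nortriptyline positive controls on each plate. Hits: a control-normalized score above the plate's top-tenth-percentile nortriptyline wells, or one of a plate's three best wells. Final well concentrations are not given.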

System: primary human hepatic stellate cells (donor 1)
Experiment: percent Bodipy-positive cells; higher = more lipid droplet accumulation
Settings: 48 h
[1] = library stock concentration: 3.33 mM
[2] = library stock concentration: 10 mM
[3] = library stock concentration: 1 mM
[4] = library stock concentration: 9.1 mM

O=P1(NCCCl)OCCCN1CCCl (centres undefined) [Ifosfamide]
percent Bodipy-positive cells: 11.9 ± 2.1%
percent Bodipy-positive cells [1]: 6.85 ± 1.6%
percent Bodipy-positive cells (library stock concentration: 7.7 mM): 11.4% and 13%
percent Bodipy-positive cells [2]: 15.4 ± 0.38%

COc1ccc(C(=O)c2c(C)n(CCN3CCOCC3)c3cc(I)ccc23)cc1
percent Bodipy-positive cells [2]: 14.7 ± 5%

CC(=O)Oc1ccc(Cl)c2cccnc12 [Chloroacetoxyquinoline]
percent Bodipy-positive cells [2]: 45 ± 7.4%

C[C@H](N)Cn1ccc2cc(F)c(Cl)cc21.O=C(O)/C=C/C(=O)O [Ro 60-0175 fumarate]
percent Bodipy-positive cells [2]: 57.7 ± 7.2%

CO[C@H](C)[C@](O)(C(=O)OCC1=CCN2CC[C@H](O)[C@@H]12)C(C)C [Heliotrine]
percent Bodipy-positive cells: 10.7 ± 0.15%

N#CCCN [3-Aminopropionitrile fumarate]
percent Bodipy-positive cells [2]: 42.2 ± 1.9%

CC(C)c1c(CN(C)C(C)Cc2ccccc2)n(C)n(-c2ccccc2)c1=O (centres undefined) [Famprofazone]
percent Bodipy-positive cells: 8.68 ± 5.4%

Oc1ccc(Cl)cc1 [Parachlorophenol]
percent Bodipy-positive cells [2]: 16.5 ± 0.36%
percent Bodipy-positive cells (library stock concentration: 15.6 mM): 3.81 ± 2.9%

CN1CC[C@@]2(C)c3cc(OC(=O)Nc4ccccc4)ccc3N(C)[C@@H]12 [Phenserine]
percent Bodipy-positive cells [2]: 70.9 ± 13%

CCCCCCCCCCCCCCCC(=O)OC[C@H](COP(=O)([O-])OCC[N+](C)(C)C)OC(=O)CCCC=O
percent Bodipy-positive cells [3]: 9.86 ± 0.97%

O=[N+]([O-])C=Cc1ccc2c(c1)OCO2
percent Bodipy-positive cells [1]: 97.6 ± 2.3%
percent Bodipy-positive cells [2]: 99.67 ± 0.47%

C=C(C)[C@@H]1[C@H]2OC(=O)[C@@H]1[C@]1(O)C[C@H]3O[C@]34C(=O)O[C@H]2[C@]14C [Picrotoxinin]
percent Bodipy-positive cells: 8.74 ± 2.1%

O=c1[nH]c(=O)n(Cl)c(=O)n1Cl
percent Bodipy-positive cells [2]: 29 ± 13%

NC(=O)CN1CCCC1=O [Piracetam]
percent Bodipy-positive cells: 30.3 ± 1.3%
percent Bodipy-positive cells [1]: 30.3 ± 8.6%
percent Bodipy-positive cells [2]: 10.4% and 25.5% and 24.5%

COc1cc2c(cc1OC)C(C)NCC2 (centres undefined)
percent Bodipy-positive cells: 61.6 ± 8.2%

NCc1cc(O)no1 [Muscimol hydrobromide]
percent Bodipy-positive cells [2]: 60.1 ± 1.5%

NCc1cc(O)no1 [Muscimol]
percent Bodipy-positive cells [2]: 11.5 ± 0.41%

CC(=O)NBr [N-Bromoacetamide]
percent Bodipy-positive cells [2]: 56.5 ± 3.1%

CC1=C(O)C(=O)C=C2C1=CC=C1[C@@]2(C)CC[C@@]2(C)[C@@H]3C[C@](C)(C(=O)O)CC[C@]3(C)CC[C@]12C [Celastrol]
percent Bodipy-positive cells [3]: 99.56 ± 0.19%

C=C[C@]12CN(C)[C@@H]3[C@H]4CO[C@H](C[C@H]41)[C@]1(C(=O)Nc4ccccc41)[C@@H]32 [Gelsemine]
percent Bodipy-positive cells: 8 ± 1.4%

CC(C)NP(=O)(NC(C)C)OP(=O)(NC(C)C)NC(C)C [Tetraisopropyl pyrophosphoramide]
percent Bodipy-positive cells [2]: 13.7 ± 1.4%

CC(=O)OCC(=O)[C@H]1CC[C@H]2[C@@H]3CC[C@H]4C[C@H](O)CC[C@]4(C)[C@H]3C(=O)C[C@]12C [Alfadolone acetate]
percent Bodipy-positive cells: 14.5 ± 2%

C=CCc1ccccc1OCC(O)CNC1(C)CCC(C(C)(C)NC(=O)CBr)CC1 (centres undefined) [Bromoacetyl alprenolol menthane]
percent Bodipy-positive cells [2]: 100%

Cc1c2ccncc2c(C)c2c1[nH]c1ccccc12 [Ellipticine]
percent Bodipy-positive cells: 100%
percent Bodipy-positive cells [2]: 100%

O=S(=O)(F)Cc1ccccc1
percent Bodipy-positive cells [1]: 10.3 ± 10%
percent Bodipy-positive cells [2]: 13.2 ± 1.4%

CN[C@@H]1C[C@H]2O[C@@](C)([C@@H]1OC)n1c3ccccc3c3c4c(c5c6ccccc6n2c5c31)C(=O)NC4 [staurosporine]
percent Bodipy-positive cells (library stock concentration: 10.7 mM): 100%

CN1CC(CNC(=O)OCc2ccccc2)C[C@H]2c3cccc4c3c(cn4C)CC21 (some centres undefined) [Metergoline]
percent Bodipy-positive cells [2]: 92.2 ± 3.2%

CNCC(O)c1ccc(O)c(OC)c1 (stereo not drawn) [Metanephrine hydrochloride DL]
percent Bodipy-positive cells: 22.5 ± 4.8%

Clc1ccc(C(OCCN2CCCCC2)c2ccccc2)cc1 (centres undefined) [Cloperastine hydrochloride]
percent Bodipy-positive cells: 44.3 ± 1.5%
percent Bodipy-positive cells [2]: 72.3 ± 1.7%

C[C@@H](CO)NC(=O)[C@@H]1C=C2c3cccc4[nH]cc(c34)C[C@H]2N(C)C1 [Ergonovine maleate]
percent Bodipy-positive cells (library stock concentration: 4.5 mM): 6.53 ± 5.6%
percent Bodipy-positive cells [2]: 21.4 ± 15%

CCCCC/C=C\C/C=C\C/C=C\C/C=C\CCCC(=O)NCCc1c[nH]c2ccc(O)cc12 [Arachidonoyl Serotonin]
percent Bodipy-positive cells [3]: 6.7 ± 1.6%

O=C(O[C@H]1C[N+]2(CCCOc3ccccc3)CCC1CC2)C(O)(c1cccs1)c1cccs1 [Aclidinium Bromide]
percent Bodipy-positive cells [1]: 12.1 ± 1.8%
percent Bodipy-positive cells [2]: 31.7 ± 5.2%

CC(=O)NC1CCSC1=O (racemic) [N-Acetyl-DL-homocysteine Thiolactone]
percent Bodipy-positive cells: 8.04 ± 0.77%

CC(Cc1ccccc1)NCCC(c1ccccc1)c1ccccc1 (centres undefined) [Prenylamine lactate]
percent Bodipy-positive cells: 76.2 ± 17%

NCCc1c[nH]c2ccccc12 [Tryptamine]
percent Bodipy-positive cells [2]: 57.1 ± 8.7%

NCCc1c[nH]c2ccccc12 [Tryptamine hydrochloride]
percent Bodipy-positive cells [2]: 59 ± 4.4%

COc1ccc(C[C@@H]2NC[C@@H](O)[C@@H]2OC(C)=O)cc1 [Anisomycin]
percent Bodipy-positive cells (library stock concentration: 18.8 mM): 86.1 ± 2%

CN(C(=O)Cc1ccccc1)C(CN1CCCC1)c1ccccc1 (centres undefined) [N-MPPP Hydrochloride]
percent Bodipy-positive cells [2]: 25.6 ± 9.1%

Cc1cc(SCc2sc(-c3ccc(C(F)(F)F)c(F)c3)nc2C)ccc1OCC(=O)O
percent Bodipy-positive cells [3]: 22 ± 1.9%
percent Bodipy-positive cells [1]: 21.4 ± 7.7%
percent Bodipy-positive cells [2]: 24.5% and 11.2%

COc1cc2c(c(OC)c1OC)-c1ccc(O)c(=O)cc1[C@@H](N)CC2 [Trimethylcolchicinic acid]
percent Bodipy-positive cells: 17.3 ± 7.5%

NC(=O)C[S+]([O-])C(c1ccccc1)c1ccccc1 (centres undefined) [Modafinil]
percent Bodipy-positive cells (library stock concentration: 7.3 mM): 19.3 ± 9.6%

CC(C)(C)[C@]1(O)CC2OC(=O)CC23C(=O)OC2OC(=O)[C@H](O)C231 (some centres undefined) [Bilobalide]
percent Bodipy-positive cells [1]: 8.18 ± 4.6%
percent Bodipy-positive cells [2]: 9.41 ± 2.5%

C=C1[C@@H](C)[C@H]2[C@H](Cc3ccccc3)NC(=O)[C@]23OC(=O)/C=C/[C@H](O)CCC[C@@H](C)C/C=C/[C@H]3[C@@H]1O [Cytochalasin B]
percent Bodipy-positive cells (library stock concentration: 10.4 mM): 100%

CC[C@@H]1/C=C/C=C/C[C@H](C)[C@H](O)[C@](C)(O)C(=O)[C@H](C)[C@@H](O)[C@H](C)C(=O)[C@H](C)[C@@H](O)[C@H](C)/C=C/C(=O)O[C@H]2[C@@H](C)[C@@H](CC1)O[C@@]1(CC[C@@H](C)[C@@H](C[C@H](C)O)O1)[C@@H]2C [Oligomycin A]
percent Bodipy-positive cells [1]: 8.07 ± 1.1%
percent Bodipy-positive cells (library stock concentration: 6.3 mM): 82.7 ± 13%
percent Bodipy-positive cells [2]: 12.5 ± 1.3%

CC(=O)OCC1=C(C(=O)O)N2C(=O)[C@@H](NC(=O)CCC[C@@H](N)C(=O)O)[C@H]2SC1 [Cephalosporin c sodium]
percent Bodipy-positive cells [2]: 19 ± 7.9%

CCCCC/C=C\C/C=C\C/C=C\C/C=C\CCCC(=O)N(C)C [Arachidonoyl-N,N-dimethyl amide]
percent Bodipy-positive cells [3]: 7.46 ± 0.92%

O=C1CN=C(c2ccccc2)c2cc([N+](=O)[O-])ccc2N1 [Nitrazepam]
percent Bodipy-positive cells [2]: 5.81 ± 0.11%

O=C(Oc1ccc([N+](=O)[O-])cc1)N1CCC(C(O)(c2ccc3c(c2)OCO3)c2ccc3c(c2)OCO3)CC1
percent Bodipy-positive cells [1]: 10.9 ± 2.7%
percent Bodipy-positive cells [2]: 33.4 ± 8.6%

CCCN1CCC[C@@H](c2cccc(O)c2)C1 [S(-)-3PPP hydrochloride]
percent Bodipy-positive cells [2]: 29.4 ± 9.5%

CCN(CC)CCO[C@H]1CC[C@@]2(C)C(=CC[C@@H]3[C@@H]2CC[C@]2(C)C(=O)CC[C@@H]32)C1
percent Bodipy-positive cells [3]: 24.2 ± 7.7%

Cc1ccc(S(=O)(=O)N[C@@H](CCCCN)C(=O)CCl)cc1 [Tosyllysine Chloromethyl Ketone (hydrochloride)]
percent Bodipy-positive cells [3]: 15.8 ± 0.9%

Cc1ccc(S(=O)(=O)N[C@@H](CCCCN)C(=O)CCl)cc1 [Na-p-Tosyl-L-lysine chloromethyl ketone hydrochloride]
percent Bodipy-positive cells [2]: 13.7 ± 4%

CN1C(=O)COc2c(C(=O)NC3CN4CCC3CC4)cc(Cl)cc21 (centres undefined) [Azasetron]
percent Bodipy-positive cells [2]: 9.91 ± 5.1%

Cc1cccc(C)c1NC1=NCCCS1 [Xylazine]
percent Bodipy-positive cells: 33.1 ± 2%
percent Bodipy-positive cells [4]: 31.4 ± 2.8%
percent Bodipy-positive cells [2]: 40.6 ± 14%

Cc1cccc(C)c1NC1=NCCCS1 [Xylazine hydrochloride]
percent Bodipy-positive cells [2]: 34.8 ± 0.4%

Cc1cccc(C)c1NC1=NCCCS1 [Xylazine HCl]
percent Bodipy-positive cells [1]: 12.4 ± 0.92%
percent Bodipy-positive cells [4]: 9.06 ± 1.1%
percent Bodipy-positive cells [2]: 26.5 ± 7.1%

Clc1ccc(N2CC3CCC(C2)N3)nn1
percent Bodipy-positive cells [2]: 41.2 ± 8.7%

COc1cc2c(cc1OC)C1CC(=O)C(CC(C)C)CN1CC2 (centres undefined) [Tetrabenazine]
percent Bodipy-positive cells [2]: 18.4% and 8.12%

CCNC(=O)[C@H]1O[C@@H](n2cnc3c(N)ncnc32)[C@H](O)[C@@H]1O
percent Bodipy-positive cells [2]: 7.66 ± 2.3%

CCNC(=O)[C@H]1O[C@@H](n2cnc3c(N)ncnc32)[C@H](O)[C@@H]1O [5'-N-Ethylcarboxamidoadenosine]
percent Bodipy-positive cells [2]: 29.6 ± 2.5%

CCCCC/C=C\C/C=C\C/C=C\C/C=C\CCCC(=O)Nc1ccc(O)cc1
percent Bodipy-positive cells [3]: 20.5 ± 22%
percent Bodipy-positive cells [2]: 11.6% and 32.5%

O=C1CCC[C@@H]2[C@H]3CCCN4CCC[C@@H](CN12)[C@@H]34 [(+)-Matrine]
percent Bodipy-positive cells [1]: 10.1 ± 3.7%
percent Bodipy-positive cells [2]: 15.5 ± 6%

COc1ccc2cc(C(C#N)OC(=O)OCC3OC3c3ccccc3)ccc2c1 (centres undefined) [Epoxy Fluor 7]
percent Bodipy-positive cells [3]: 9.99 ± 0.24%

COC[C@H]1OC(=O)c2coc3c2[C@@]1(C)C1=C(C3=O)[C@@H]2CCC(=O)[C@@]2(C)C[C@H]1OC(C)=O [Wortmannin]
percent Bodipy-positive cells [1]: 10.9 ± 3.4%
percent Bodipy-positive cells [2]: 23.7 ± 4.5%

C=C(C)[C@@H]1CCC(C)=C[C@H]1c1c(O)cc(O)cc1CCCCC
percent Bodipy-positive cells [3]: 21.7 ± 11%

O=C1C=CC(=O)c2c(O)cccc21 [Juglone]
percent Bodipy-positive cells [2]: 72.3 ± 24%

CNCCc1ccc(O)c(O)c1 [N-Methyldopamine hydrochloride]
percent Bodipy-positive cells [2]: 22.4 ± 0.32%

Clc1cnc(Oc2ccc(Oc3ncc(Cl)cc3Cl)cc2)c(Cl)c1
percent Bodipy-positive cells [2]: 33.9 ± 5.9%

Oc1cc2c(cc1O)[C@H]1c3ccccc3CN[C@@H]1CC2
percent Bodipy-positive cells [2]: 57.63 ± 0.23%

COc1ccc2c(c1)[C@]13CCCC[C@@H]1[C@H](C2)N(C)CC3 [Dextromethorphan hydrobromide]
percent Bodipy-positive cells (library stock concentration: 5.7 mM): 29.9 ± 4.6%
percent Bodipy-positive cells [2]: 36.12 ± 0.2%

COc1ccc2c(c1)[C@]13CCCC[C@@H]1[C@H](C2)N(C)CC3 [d-3-Methoxy-N-methylmorphinan hydrobromide]
percent Bodipy-positive cells [2]: 49 ± 4.2%

COc1ccc2c(c1)[C@]13CCCC[C@@H]1[C@H](C2)N(C)CC3 [Dextromethorphan hydrobromide monohydrate]
percent Bodipy-positive cells: 50.7 ± 0.93%
percent Bodipy-positive cells [2]: 77.5 ± 3.2%

COc1c(C[C@@H](C)OC(=O)Oc2ccc(O)cc2)c2c3c(C[C@@H](C)OC(=O)c4ccccc4)c(OC)c(=O)c4c(O)cc(OC)c(c5c(OC)cc(O)c(c1=O)c52)c43 [Calphostin C]
percent Bodipy-positive cells (library stock concentration: 600 uM): 3.36 ± 0.17%

CC1=NCCc2c1[nH]c1cc(O)ccc21 [Harmalol hydrochloride]
percent Bodipy-positive cells [2]: 31.6 ± 12%

Cc1cccc(C(C)c2c[nH]cn2)c1C (centres undefined) [Medetomidine hydrochloride]
percent Bodipy-positive cells [2]: 8.77 ± 2.7%

Cc1cccc(C(C)c2c[nH]cn2)c1C (centres undefined) [Medetomidine HCl]
percent Bodipy-positive cells [1]: 10.7 ± 5.6%
percent Bodipy-positive cells [2]: 64.3 ± 26%
